Key:
fructose-fed rats = assay: Prevention of fructose-induced hyperuricemia with allopurinol; type: in vivo, rat; conditions: at 8 weeks; difference not significant
Description: […] Three groups (control, Fr, and Fr+AP; n=8 each) were designed for this prevention study. Body weight was measured every 2 weeks. Food consumption was measured for 3 days at 8 weeks.
Measurements: Systolic blood pressure was assessed as the mean value of 3 consecutive measurements obtained in the morning using a tail-cuff sphygmomanometer (Visitech BP2000, Visitech Systems, Inc., Apex, N.C.). All animals were preconditioned for blood pressure measurements 1 wk before each experiment. Serum uric acid was measured by uricase method. Blood glucose was measured with the ONE TOUCH system (Johnson&Johnson, Milpitas, Calif.). Rat insulin was measured by ELISA (Crystal Chem. Inc., Chicago, Ill.). Insulin sensitivity index was calculated using the formula of Matsuda and DeFronzo (10,000/square root of [fasting glucose×fasting insulin]×[mean glucose×mean insulin during OGTT]), which is highly correlated (r=0.73, p<0.0001) with rate of whole-body glucose disposal during the euglycemic insulin clamp (Matsuda M and DeFronzo R A, Insulin sensitivity indices obtained from oral glucose tolerance testing: comparison with the euglycemic insulin clamp, Diabetes Care 22: 1462-1470, 1999). Serum lipids were measured with an autoanalyzer (VETAce, Alfa Wassermann Inc, West Caldwell, N.J.) or Triglyceride-SL assay kit (Diagnostic chemicals Limited, Charlottetown, PE, Canada).
Statistical analysis. […]

[1] = Effect of allopurinol or benzbromarone on body weight and food consumption, control diet; type: in vivo, rat; conditions: vs control diet alone; for Total food consumption at 8 weeks: 150 mg/L drinking water; for final body weight: 8 weeks

Row | SMILES | total food intake over 3 days (fructose-fed rats) [g] | Total food consumption at 8 weeks [1] | final body weight [1]
1 | O=C(CO)[C@@H](O)[C@H](O)[C@H](O)CO [Fr, fructose] | 92 ± 2 | – | –
2 | CCc1oc2ccccc2c1C(=O)c1cc(Br)c(O)c(Br)c1 [benzbromarone, Benzbromarone] | – | not different | not different
3 | Oc1ncnc2[nH]ncc12 [Allopurinol, allopurinol] | 88 ± 4 | not different | not different

From patent US9155740B2, “Compositions and methods for treatment and prevention of hyperuricemia related health consequences” (priority 2004, dated 2015)
